Experimental findings from publication PMC12329634 are described below.

Chains of the proteins cited; added tags and fusions are not shown.
UniProt P63159: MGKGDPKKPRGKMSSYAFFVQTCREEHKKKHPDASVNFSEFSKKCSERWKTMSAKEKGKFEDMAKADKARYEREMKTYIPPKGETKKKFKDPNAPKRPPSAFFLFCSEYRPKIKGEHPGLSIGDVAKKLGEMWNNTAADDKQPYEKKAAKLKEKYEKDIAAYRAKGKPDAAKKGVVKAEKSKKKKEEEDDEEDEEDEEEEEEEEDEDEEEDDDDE
UniProt Q91XJ1: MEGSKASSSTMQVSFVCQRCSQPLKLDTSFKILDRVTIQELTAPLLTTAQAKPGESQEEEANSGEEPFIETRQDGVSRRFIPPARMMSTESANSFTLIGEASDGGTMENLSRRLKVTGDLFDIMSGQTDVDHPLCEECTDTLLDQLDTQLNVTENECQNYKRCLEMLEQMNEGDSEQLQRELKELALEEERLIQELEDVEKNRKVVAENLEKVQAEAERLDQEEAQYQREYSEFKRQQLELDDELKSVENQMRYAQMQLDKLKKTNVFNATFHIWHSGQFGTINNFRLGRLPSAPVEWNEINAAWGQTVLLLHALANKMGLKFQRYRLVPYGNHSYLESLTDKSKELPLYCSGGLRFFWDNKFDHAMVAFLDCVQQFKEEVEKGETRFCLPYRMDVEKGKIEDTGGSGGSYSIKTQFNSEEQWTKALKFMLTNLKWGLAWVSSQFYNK

This test deals with high mobility group box 1 (UniProt P63159). Description: co-IP; HMGB1 and Beclin1 co-immunoprecipitation from cells of the normal control, OGD/R (8 h OGD followed by 24 h reperfusion) and IPOC groups; Beclin1 and HMGB1 detected by western blot. For orientation: In western blotting, separated proteins are transferred to a membrane and probed.

These are yes or no findings as the source states them, for the method shown. Binding seen in cells or lysates may run through a third protein. Some binding calls cover weakened binding; strength is not graded here.

As to Beclin1 (from UniProt Q91XJ1 1-448), the binding entry is recorded as “binds”.
